The source of these data is paper PMC7782713, “Structural basis of Naa20 activity towards a canonical NatB substrate” (Communications Biology, 2021).

In this series the test system is CtNaa20 + CtNaa25. The experiment in a line: EMSA. The following applies: 5-20 uM protein, 5 uM RNA; 20 mM Tris pH 8, 200 mM NaCl, 10 mM MgCl2, 10 mM KCl, 20% glycerol, 20 C, 30 min; 0.8% agarose gel in 0.5x TB; recombinant protein; protein details: C-terminal His6,N-terminal His6, TEV-cleavable.

Construct, isoform or probe ends are uncertain for at least one entry.

As for “GGGCCUCUAGCCGGGCAACCGGCCGGCGGCUC [CtES27 fragment (tip of expansion segment 27)]”, the binding result is recorded as “binds”.
